Results taken from publication PMC12153694.

By UniProt entry, the sequences of proteins in these tests, tags left out. Residues count along the entry.
UniProt P14735, residues 42-1019: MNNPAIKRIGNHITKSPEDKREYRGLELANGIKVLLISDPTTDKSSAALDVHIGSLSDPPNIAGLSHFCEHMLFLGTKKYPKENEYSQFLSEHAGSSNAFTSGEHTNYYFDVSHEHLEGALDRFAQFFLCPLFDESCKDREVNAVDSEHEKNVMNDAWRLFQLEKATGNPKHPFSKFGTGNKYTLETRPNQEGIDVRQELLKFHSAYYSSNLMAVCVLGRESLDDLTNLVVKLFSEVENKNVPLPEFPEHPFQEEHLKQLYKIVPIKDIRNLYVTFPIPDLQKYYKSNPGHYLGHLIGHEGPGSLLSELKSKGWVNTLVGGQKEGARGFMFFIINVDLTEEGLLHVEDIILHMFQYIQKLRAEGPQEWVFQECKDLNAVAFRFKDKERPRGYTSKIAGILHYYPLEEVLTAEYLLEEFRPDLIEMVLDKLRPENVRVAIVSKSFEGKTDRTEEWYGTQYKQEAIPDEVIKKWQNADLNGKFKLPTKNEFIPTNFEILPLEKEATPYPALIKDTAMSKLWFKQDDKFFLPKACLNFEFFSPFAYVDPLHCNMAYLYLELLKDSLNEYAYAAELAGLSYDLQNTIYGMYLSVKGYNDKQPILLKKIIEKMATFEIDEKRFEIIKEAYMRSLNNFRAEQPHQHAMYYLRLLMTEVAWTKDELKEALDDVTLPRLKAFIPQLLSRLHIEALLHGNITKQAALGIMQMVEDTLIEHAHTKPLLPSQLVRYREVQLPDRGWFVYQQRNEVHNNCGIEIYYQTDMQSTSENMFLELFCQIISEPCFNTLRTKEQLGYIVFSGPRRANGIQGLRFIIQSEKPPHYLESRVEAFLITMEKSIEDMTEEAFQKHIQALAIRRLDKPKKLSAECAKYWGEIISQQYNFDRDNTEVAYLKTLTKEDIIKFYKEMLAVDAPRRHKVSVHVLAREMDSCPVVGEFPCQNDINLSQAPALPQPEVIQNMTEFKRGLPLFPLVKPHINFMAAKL
UniProt A5YKK6: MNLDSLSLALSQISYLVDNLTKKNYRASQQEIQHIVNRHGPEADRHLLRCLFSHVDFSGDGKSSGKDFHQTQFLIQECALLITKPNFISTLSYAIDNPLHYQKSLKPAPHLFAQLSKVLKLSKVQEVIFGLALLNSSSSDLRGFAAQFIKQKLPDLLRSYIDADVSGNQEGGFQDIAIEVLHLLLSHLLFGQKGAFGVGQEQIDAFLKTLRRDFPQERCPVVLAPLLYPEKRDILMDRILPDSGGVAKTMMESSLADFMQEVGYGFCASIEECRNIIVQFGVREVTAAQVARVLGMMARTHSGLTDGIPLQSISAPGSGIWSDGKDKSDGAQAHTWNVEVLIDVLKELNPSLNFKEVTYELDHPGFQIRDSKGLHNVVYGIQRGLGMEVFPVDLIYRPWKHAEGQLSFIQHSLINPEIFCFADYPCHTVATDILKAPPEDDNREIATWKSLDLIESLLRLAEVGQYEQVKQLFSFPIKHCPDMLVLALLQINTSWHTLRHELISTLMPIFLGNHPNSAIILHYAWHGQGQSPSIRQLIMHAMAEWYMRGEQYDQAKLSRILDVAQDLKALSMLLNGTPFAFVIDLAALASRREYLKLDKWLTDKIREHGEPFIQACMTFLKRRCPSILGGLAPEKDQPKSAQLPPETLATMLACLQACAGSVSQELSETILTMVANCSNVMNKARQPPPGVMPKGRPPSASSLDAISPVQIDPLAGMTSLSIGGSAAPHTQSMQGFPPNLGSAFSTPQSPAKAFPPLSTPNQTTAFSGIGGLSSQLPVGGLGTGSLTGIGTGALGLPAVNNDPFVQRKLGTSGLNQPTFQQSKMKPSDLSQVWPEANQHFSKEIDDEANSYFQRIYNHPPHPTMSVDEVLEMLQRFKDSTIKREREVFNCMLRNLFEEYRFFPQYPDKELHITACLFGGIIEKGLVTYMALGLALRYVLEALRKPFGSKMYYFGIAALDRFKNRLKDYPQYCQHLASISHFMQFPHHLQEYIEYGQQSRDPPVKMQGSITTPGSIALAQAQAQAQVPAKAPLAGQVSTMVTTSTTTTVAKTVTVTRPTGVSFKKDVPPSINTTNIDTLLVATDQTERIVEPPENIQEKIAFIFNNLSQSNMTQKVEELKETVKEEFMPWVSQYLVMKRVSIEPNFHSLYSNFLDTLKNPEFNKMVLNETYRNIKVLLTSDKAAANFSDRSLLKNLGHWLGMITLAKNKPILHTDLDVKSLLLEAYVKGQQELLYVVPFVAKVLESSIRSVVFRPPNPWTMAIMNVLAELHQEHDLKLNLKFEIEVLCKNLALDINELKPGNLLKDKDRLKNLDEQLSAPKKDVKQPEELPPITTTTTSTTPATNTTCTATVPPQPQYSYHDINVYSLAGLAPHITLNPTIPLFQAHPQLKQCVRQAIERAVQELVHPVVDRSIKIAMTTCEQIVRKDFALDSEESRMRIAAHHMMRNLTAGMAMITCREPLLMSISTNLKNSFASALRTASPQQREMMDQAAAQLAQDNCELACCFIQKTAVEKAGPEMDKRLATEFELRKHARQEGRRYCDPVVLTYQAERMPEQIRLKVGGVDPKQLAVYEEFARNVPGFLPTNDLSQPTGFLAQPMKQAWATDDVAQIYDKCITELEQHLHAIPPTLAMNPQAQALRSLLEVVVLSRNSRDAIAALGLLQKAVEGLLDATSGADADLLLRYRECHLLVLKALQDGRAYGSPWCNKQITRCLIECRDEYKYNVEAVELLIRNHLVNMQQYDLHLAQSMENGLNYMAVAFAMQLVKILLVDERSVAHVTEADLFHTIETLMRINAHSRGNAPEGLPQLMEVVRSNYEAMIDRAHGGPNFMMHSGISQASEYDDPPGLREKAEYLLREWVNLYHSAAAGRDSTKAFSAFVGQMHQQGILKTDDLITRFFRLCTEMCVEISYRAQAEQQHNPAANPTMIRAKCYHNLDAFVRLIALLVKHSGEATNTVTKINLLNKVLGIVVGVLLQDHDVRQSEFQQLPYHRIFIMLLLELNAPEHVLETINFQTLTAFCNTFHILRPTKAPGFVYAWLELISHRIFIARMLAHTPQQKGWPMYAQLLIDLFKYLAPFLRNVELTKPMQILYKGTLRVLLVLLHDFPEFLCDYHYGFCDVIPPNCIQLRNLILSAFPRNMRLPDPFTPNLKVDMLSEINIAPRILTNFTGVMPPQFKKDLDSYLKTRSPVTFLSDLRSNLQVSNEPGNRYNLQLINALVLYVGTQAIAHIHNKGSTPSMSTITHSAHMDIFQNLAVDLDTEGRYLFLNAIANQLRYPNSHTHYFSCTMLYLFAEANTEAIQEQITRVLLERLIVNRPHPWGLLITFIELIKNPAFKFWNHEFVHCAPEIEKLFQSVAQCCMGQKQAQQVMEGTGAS

Molecular target: cytoplasmic form of human IDE fused with V5tagTurboID (human) (UniProt P14735)
Assay: proximity labelling; TurboID fused to cytosolic IDE in HEK293 cells, 10 min with 50 uM biotin; biotinylated proteins purified on streptavidin magnetic beads and identified by nanoLC-MS/MS; compared with Cyto-TurboID cells plus biotin and Cyto-IDE cells without biotin; four replicates

binding: no binding
Substance: CNOT1, scaffold subunit of CCR4-NOT (from UniProt A5YKK6 1-2376)

These are yes or no findings as the source states them, for the method shown. Binding seen in cells or lysates may run through a third protein. Here binding means that the protein was enriched with, or labelled near, the bait; the list need not be complete. A no says only that the protein was not detected with the bait.
